Data as given in article PMC7431862.
These are yes or no findings as the source states them, for the method shown. Binding seen in cells or lysates may run through a third protein. Some binding calls cover weakened binding; strength is not graded here. Tags and fused reporters may be left off the sequences shown.

Amino acid sequences for entries named in this document (tags omitted).
UniProt Q15022: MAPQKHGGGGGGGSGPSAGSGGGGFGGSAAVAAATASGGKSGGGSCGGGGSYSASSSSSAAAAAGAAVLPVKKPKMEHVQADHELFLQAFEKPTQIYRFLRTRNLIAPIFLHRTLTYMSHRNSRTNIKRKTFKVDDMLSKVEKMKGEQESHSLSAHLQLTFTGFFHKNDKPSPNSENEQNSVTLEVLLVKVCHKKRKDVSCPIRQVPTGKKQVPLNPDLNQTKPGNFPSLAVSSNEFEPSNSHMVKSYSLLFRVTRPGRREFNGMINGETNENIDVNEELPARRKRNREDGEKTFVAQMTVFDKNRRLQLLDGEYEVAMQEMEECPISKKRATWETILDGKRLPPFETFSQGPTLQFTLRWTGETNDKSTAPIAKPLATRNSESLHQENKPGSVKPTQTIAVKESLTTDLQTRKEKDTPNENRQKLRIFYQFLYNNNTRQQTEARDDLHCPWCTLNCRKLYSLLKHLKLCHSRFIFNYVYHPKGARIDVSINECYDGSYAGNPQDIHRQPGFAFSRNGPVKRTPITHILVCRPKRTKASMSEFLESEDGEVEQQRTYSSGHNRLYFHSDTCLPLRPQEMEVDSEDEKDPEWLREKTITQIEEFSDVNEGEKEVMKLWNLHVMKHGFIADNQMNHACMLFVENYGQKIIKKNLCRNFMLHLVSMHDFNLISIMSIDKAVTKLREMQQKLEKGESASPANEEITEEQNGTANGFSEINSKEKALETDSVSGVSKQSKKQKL

Molecular target: T1, flag-tagged CTCF (CCCTC-binding factor) (UniProt P49711)
T1 sequence: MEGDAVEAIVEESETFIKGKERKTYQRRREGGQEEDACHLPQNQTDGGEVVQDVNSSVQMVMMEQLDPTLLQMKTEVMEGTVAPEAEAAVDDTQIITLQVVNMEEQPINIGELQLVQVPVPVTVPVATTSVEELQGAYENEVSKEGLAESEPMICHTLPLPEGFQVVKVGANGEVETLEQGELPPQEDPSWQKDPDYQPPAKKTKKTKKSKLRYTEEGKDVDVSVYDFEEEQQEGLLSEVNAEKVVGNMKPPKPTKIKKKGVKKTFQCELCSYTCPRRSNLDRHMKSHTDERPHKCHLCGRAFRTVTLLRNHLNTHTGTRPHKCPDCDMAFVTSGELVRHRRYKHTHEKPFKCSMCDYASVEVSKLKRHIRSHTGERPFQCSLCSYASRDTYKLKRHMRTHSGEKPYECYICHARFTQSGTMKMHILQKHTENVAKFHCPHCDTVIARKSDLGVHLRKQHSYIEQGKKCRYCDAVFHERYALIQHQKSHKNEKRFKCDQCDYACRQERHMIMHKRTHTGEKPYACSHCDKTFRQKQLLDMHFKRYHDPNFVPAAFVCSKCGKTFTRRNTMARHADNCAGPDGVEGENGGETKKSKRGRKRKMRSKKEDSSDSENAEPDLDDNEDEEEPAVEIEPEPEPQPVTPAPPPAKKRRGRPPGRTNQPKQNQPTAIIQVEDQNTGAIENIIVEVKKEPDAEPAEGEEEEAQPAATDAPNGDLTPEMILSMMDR
Assay: co-IP; HEK293T cells transfected for 48 h with Flag-CTCF and HA-SUZ12 vectors; lysed in NP-40 buffer (170 mM NaCl, 10 mM EDTA, 50 mM Tris pH 7.4, 50 mM NaF, 0.5% NP-40); 300 ug lysate with 2 ug IgG or antibody, Protein A/G beads; anti-Flag and anti-HA antibodies; Western blot

HA-tagged SUZ12 (from UniProt Q15022 1-739)
binding: binds
